Results on 27 molecules are retold here after PubChem BioAssay AID256 (DTP/NCI, 2004).

This assay deals with CD2F1 mice, L1210 leukemia ip, survival T/C. Nature of the assay: NCI In Vivo Anticancer Drug Screen. Data for tumor model L1210 Leukemia (intraperitoneal) in CD2F1 (CDF1) mice. The settings on record: higher T/C = longer survival. In outline:
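Ratio T/C, where T is the treated-group value and C the vehicle-dosed control value, from mice implanted with a transplantable tumor.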

The mark [1] stands for this setting: T/C endpoint: mean survival time, dose: 25.0 mg/kg/injection, schedule: Q01DX009 (ip), vehicle: saline with Tween-80.
Setting [2] is: T/C endpoint: mean survival time, dose: 50.0 mg/kg/injection, schedule: Q04DX002 (ip), vehicle: saline with Tween-80.
[3] abbreviates: T/C endpoint: mean survival time, dose: 100.0 mg/kg/injection, schedule: Q04DX002 (ip), vehicle: saline with Tween-80.
Setting [4] is: T/C endpoint: mean survival time, dose: 400.0 mg/kg/injection, schedule: Q04DX003 (ip), vehicle: saline with Tween-80.
Setting [5] is: T/C endpoint: mean survival time, dose: 100.0 mg/kg/injection, schedule: Q01DX001 (ip), vehicle: saline with Tween-80.
Setting [6] is: T/C endpoint: mean survival time, dose: 100.0 mg/kg/injection, schedule: Q04DX003 (ip), vehicle: saline with Tween-80.
[7] abbreviates: T/C endpoint: mean survival time, dose: 200.0 mg/kg/injection, schedule: Q04DX003 (ip), vehicle: saline with Tween-80.
Setting [8] is: T/C endpoint: mean survival time, dose: 200.0 mg/kg/injection, schedule: Q01DX001 (ip), vehicle: saline with Tween-80.
[9] abbreviates: T/C endpoint: mean survival time, dose: 400.0 mg/kg/injection, schedule: Q01DX001 (ip), vehicle: saline with Tween-80.
[10] abbreviates: T/C endpoint: mean survival time, dose: 400.0 mg/kg/injection, schedule: Q01DX009 (ip), vehicle: saline with Tween-80.
Where [11] appears, read: T/C endpoint: mean survival time, dose: 150.0 mg/kg/injection, schedule: Q01DX001 (ip), vehicle: saline.
Setting [12] is: T/C endpoint: mean survival time, dose: 300.0 mg/kg/injection, schedule: Q01DX001 (ip), vehicle: saline.
[13] abbreviates: T/C endpoint: mean survival time, dose: 400.0 mg/kg/injection, schedule: Q04DX002 (ip), vehicle: saline with Tween-80.

The list is a part of this screen's results and no random one: it is rich in T/C values a quarter to a half above the control, in often repeated tests (any T/C) and in doses without a T/C. Other doses and runs of a compound stand elsewhere. T/C is the treated group as % of the vehicle group. Some doses have a count of surviving animals in place of a T/C: the source holds a T/C of zero for them, seemingly a mark for toxic or unscored doses. Some survivor counts are full or nearly so, which does not show that the dose was tolerated: the source hardly ever lists a survival T/C far under the control, and the zero likely stands for such cases as well. Counts of survivors are from the toxicity check (mostly the fifth day) where no day follows; animals may have died later. Schedule codes are those of the source, read here as Q, the interval in days (D) or hours (H), X, the number of doses. Where survival is the endpoint, the PubChem record calls one and a half times the control and up active, and a quarter to a half above the control has no call in these data; cut-offs in other NCI protocols can differ. Some entries were tested several times; the results are listed from low to high. Some T/C values are followed by the survivors on the day toxicity was checked, most often the fifth; where none is given, no animal had died by that day.

Regarding `C=CCN(C)N=Nc1ccc(NC(N)=O)cc1`, the T/C was 128 % of control (T/C endpoint: mean survival time, dose: 18.75 mg/kg/injection, schedule: Q01DX009 (ip), vehicle: Klucel (hydroxypropylcellulose) (HPC)); 138 and 139 % of control (T/C endpoint: mean survival time, dose: 37.5 mg/kg/injection, schedule: Q01DX009 (ip), vehicle: Klucel (hydroxypropylcellulose) (HPC)); 140 % of control [4 of 6 alive] (T/C endpoint: mean survival time, dose: 75.0 mg/kg/injection, schedule: Q01DX009 (ip), vehicle: Klucel (hydroxypropylcellulose) (HPC)). Besides, the survivor count (T/C endpoint: mean survival time, dose: 150.0 mg/kg/injection, schedule: Q01DX009 (ip), vehicle: Klucel (hydroxypropylcellulose) (HPC)) is reported as 0 of 6.
`C/C(Cl)=C\CNc1ncnc2c1ncn2C1OC(CO)C(O)C1O` (stereo not given): the survivor count is, setting by setting: (T/C endpoint: mean survival time, dose: 200.0 mg/kg/injection, schedule: Q01DX005 (ip), vehicle: distilled water + Tween-80) 3 of 6; (T/C endpoint: mean survival time, dose: 400.0 mg/kg/injection, schedule: Q01DX005 (ip), vehicle: distilled water + Tween-80) 0 of 6.
Turning to `Cc1cc(C)c(N2C(=O)C=CC2=O)c(C)c1`, the survivor count runs as follows: (T/C endpoint: mean survival time, dose: 12.5 mg/kg/injection, schedule: Q01DX009 (ip), vehicle: saline with Tween-80) 5 of 6; under setting [1], 2 of 6; (T/C endpoint: mean survival time, dose: 25.0 mg/kg/injection, schedule: Q04DX002 (ip), vehicle: saline with Tween-80) 0 of 3; under setting [2], 0 of 3; under setting [3], 0 of 3.
As to `O=S=Nc1ccc(S(=O)(=O)c2ccc(N=S=O)cc2)cc1`, the survivor count is, setting by setting: (T/C endpoint: mean survival time, dose: 100.0 mg/kg/injection, schedule: Q01DX009 (ip), vehicle: saline with Tween-80) 2 of 6; under setting [4], 3 of 6.
For `C1CCC2(CC1)NCCO2`, the survivor count (T/C endpoint: mean survival time, dose: 400.0 mg/kg/injection, schedule: Q01DX009 (ip), vehicle: saline sonified) is given as 4 of 6.
As for `COc1ccc(N2C(=O)C=CC2=O)cc1`, the survivor count (T/C endpoint: mean survival time, dose: 50.0 mg/kg/injection, schedule: Q01DX001 (ip), vehicle: saline with Tween-80) was 0 of 3 and the survivor count under setting [5] is given as 0 of 3.
Regarding `CC1=[S+]c2ccccc2C2Nc3ccccc3C12` (stereo not given), under “T/C endpoint: mean survival time, dose: 400.0 mg/kg/injection, schedule: Q04DX003 (ip), vehicle: acetone”, the survivor count is 3 of 6.
In the case of `O=c1cc(C(F)(F)F)[nH]c2ccc(F)cc12`, the survivor count under setting [6] was 1 of 6, the survivor count under setting [7] is 0 of 6 and the survivor count under setting [4] was 0 of 6.
As to `Oc1c(Cl)c(Cl)c(O)c(Cl)c1Cl`, the survivor count under setting [5] is 0 of 3, the survivor count under setting [8] is given as 0 of 3 and the survivor count under setting [9] was 0 of 3.
Take `COc1cc(NS(C)(=O)=O)ccc1Nc1c2ccc(Cl)cc2nc2c(OC)cccc12`: the survivor count under setting [1] is recorded as 5 of 6 and the survivor count (T/C endpoint: mean survival time, dose: 50.0 mg/kg/injection, schedule: Q01DX009 (ip), vehicle: saline with Tween-80) is 5 of 6. Besides, under “T/C endpoint: mean survival time, dose: 400.0 mg/kg/injection, schedule: Q04DX003 (ip), vehicle: saline sonified”, the T/C is 148 % of control.
Regarding `O=C(c1ccccc1)C(C(O)CCl)C(O)(C(F)(F)F)C(F)(F)F` (stereo not given), under setting [10], the survivor count was 4 of 6.
Take `CN1CCC(O)(C#N)CC1`: the survivor count (T/C endpoint: mean survival time, dose: 75.0 mg/kg/injection, schedule: Q01DX001 (ip), vehicle: saline) was 0 of 6; the survivor count under setting [11] was 0 of 6; the survivor count under setting [12] was 0 of 6.
As to `Oc1cc(O)cc(/C=C/c2ccc(O)c(O)c2)c1`, the survivor count was 5 of 6 (T/C endpoint: median survival time, dose: 100.0 mg/kg/injection, schedule: Q01DX009 (ip), vehicle: DMSO); 0 of 6 (T/C endpoint: median survival time, dose: 200.0 mg/kg/injection, schedule: Q01DX009 (ip), vehicle: DMSO); 0 of 6 (T/C endpoint: median survival time, dose: 400.0 mg/kg/injection, schedule: Q01DX009 (ip), vehicle: DMSO).
Turning to `Cc1ccccc1C(C)NC1=NCCO1` (stereo not given), the survivor count runs as follows: under setting [6], 0 of 6; under setting [7], 0 of 6; under setting [4], 0 of 6.
Regarding `NC(=S)N/N=C/c1ccc(Br)cn1`, the survivor count by setting is: under setting [2], 1 of 3; under setting [3], 0 of 3; (T/C endpoint: mean survival time, dose: 200.0 mg/kg/injection, schedule: Q04DX002 (ip), vehicle: saline with Tween-80) 0 of 3; under setting [13], 0 of 3.
For `CCN(CC)P(=O)(NCCCl)OC` (stereo not given), the T/C (T/C endpoint: mean survival time, dose: 200.0 mg/kg/injection, schedule: Q01DX009 (ip), vehicle: DMSO) is 133 % of control. The survivor count (T/C endpoint: mean survival time, dose: 400.0 mg/kg/injection, schedule: Q01DX009 (ip), vehicle: DMSO) is 1 of 3.
For the molecule `O=C(/C=C/C(=O)c1ccccc1)c1ccccc1`, the survivor count was 3 of 3 (T/C endpoint: mean survival time, dose: 25.0 mg/kg/injection, schedule: Q01DX001 (ip), vehicle: saline with Tween-80); 1 of 3 under setting [5]; 0 of 3 under setting [8]; 0 of 3 under setting [9].
Regarding `Nc1cc2c(cc1Br)-c1ccccc1C2Br` (stereo not given), under setting [7], the survivor count is 3 of 6.
In the case of `Nc1nc(-c2ccccc2)cs1`, the survivor count under setting [7] is on record as 0 of 6 and the survivor count under setting [4] was 0 of 6.
Consider `CCOC(=O)/C(C#N)=N\O`, for which the survivor count by setting is: (T/C endpoint: mean survival time, dose: 200.0 mg/kg/injection, schedule: Q01DX001 (ip), vehicle: saline) 0 of 3; (T/C endpoint: mean survival time, dose: 400.0 mg/kg/injection, schedule: Q01DX001 (ip), vehicle: saline) 0 of 3.
As to `NC(N)=NO`, the T/C is, setting by setting: (T/C endpoint: mean survival time, dose: 100.0 mg/kg/injection, schedule: Q01DX009 (ip), vehicle: water) 125 % of control; (T/C endpoint: mean survival time, dose: 200.0 mg/kg/injection, schedule: Q01DX009 (ip), vehicle: water) 141 % of control; (T/C endpoint: mean survival time, dose: 400.0 mg/kg/injection, schedule: Q01DX009 (ip), vehicle: water) 130 and 146 % of control. The survivor count is on record as 4 of 10 (T/C endpoint: mean survival time, dose: 600.0 mg/kg/injection, schedule: Q01DX009 (ip), vehicle: water); 0 of 10 (T/C endpoint: mean survival time, dose: 700.0 mg/kg/injection, schedule: Q01DX009 (ip), vehicle: water); 2 of 10 (T/C endpoint: mean survival time, dose: 800.0 mg/kg/injection, schedule: Q01DX009 (ip), vehicle: water).
Consider `CCCCCCCCCCCCCCCc1nnc(SC)s1`, for which the survivor count (T/C endpoint: mean survival time, dose: 200.0 mg/kg/injection, schedule: Q01DX009 (ip), vehicle: saline with Tween-80) is on record as 6 of 6.
`CCOC(=O)/C(C#N)=N/O`: the survivor count by setting is: under setting [11], 0 of 6; under setting [12], 0 of 6.
`COc1cccc(CN2CCNCC2)c1`: the survivor count is, setting by setting: (T/C endpoint: mean survival time, dose: 200.0 mg/kg/injection, schedule: Q01DX005 (ip), vehicle: water) 0 of 6; (T/C endpoint: mean survival time, dose: 400.0 mg/kg/injection, schedule: Q01DX005 (ip), vehicle: water) 0 of 6.
Turning to `CCN=C(NCC)SCCSC(=NCC)NCC`, the survivor count under setting [13] was 0 of 3.
In the case of `Clc1ccc(C[n+]2ccccc2)cc1Cl`, the survivor count (T/C endpoint: mean survival time, dose: 40.0 mg/kg/injection, schedule: Q04DX003 (ip), vehicle: saline) is given as 2 of 6.
Take `NC(=O)N/N=C1\CC2C=CCC12` (stereo not given): the survivor count under setting [10] was 3 of 6.
